In patent US20120289452A1, “COMPOSITIONS AND METHODS FOR TREATING AND PREVENTING NECROSIS” (Ilana Nathan, priority 2002, published 2012):
Not every detail of the peptide structures is certain; ends, links or a residue may be inferred. Residues, ends and D or L forms follow the SMILES beside them. *: point of attachment. MeOSuc = COC(=O)CCC(=O)*; CH2Cl = ClC*

How the values were obtained:
PC-12 cells = assay: KCN-induced necrosis in PC-12 cells, morphological quantification; format: cell-based, rat
Description: The rat pheochromocytoma PC-12 cell line was propagated in DMEM medium (Gibco, BRL), supplemented with 5% heat-inactivated calf serum, 10% heat-inactivated horse serum, and 2 mM L-glutamine. PC-12 cells in logarithmic phase were seeded at a concentration of 1.2×10^5/well in 24-well plates (Cellstar). Then the cells were washed twice and maintained in glucose-free RPMI-1640 medium (Beit Haemek, Israel), and supplemented with 2 mM pyruvate and 10% dialyzed FCS for one hour. […] Alternatively, cells were treated with or without 100 ng/ml anti-Fas (Upstate biotechnology, USA) for the same time period. U-937 and PC-12 cells cultured in complete RPMI-1640 medium were washed and seeded in glucose-free RPMI-1640 medium, as described above, and treated with or without 0.5 mM KCN (Merck, Germany) for seven hours with U-937 cells, or for five hours with PC-12 cells. […] Cells undergoing morphological changes associated with apoptotic or necrotic cell death were monitored as described by McGahon et al. [Methods Cell Biol, 46: p. […] The pellet was resuspended in a 20-fold dilution of the dye mixture (composed of 100 μg/ml acridine orange and 100 μg/ml ethidium bromide in PBS), placed on a glass slide and viewed on an inverted fluorescence microscope. A minimum of 200 cells was scored for each sample.

U-937 cells = conditions: KCN with elastase inhibitor III

COC(=O)CCC(=O)N[C@@H](C)C(=O)N[C@@H](C)C(=O)N1CCC[C@H]1C(=O)N[C@H](C(=O)CCl)C(C)C [elastase inhibitor III, MeOSuc-Ala-Ala-Pro-Val-CMK] (MeOSuc-AAPV-CH2Cl)
effect of inhibitor by itself (PC-12 cells; 200 μM inhibitor without KCN): inactive by itself
effect on necrosis induced by KCN (PC-12 cells; 0.5 mM KCN, 200 μM inhibitor): significantly inhibited necrosis
cells protected from necrotic cell death (U-937 cells): 52%
necrotic cell death (U-937 cells): 21%
necrotic cell death shifted to apoptotic cell death (U-937 cells): 22%
